Here are results for 167 variants from the RNAGym collection of RNA variant scans (doi:10.1126/science.aae0568).

Variants at the floor of the assay are shown more often than the library holds them.

Sequences and labels used below:
B1: tRNA (parent)
chain: GUUCCGUUGGCGUAAUGGUAACGCGUCUCCCUCCUAAGGAGAAGACUGCGGGUUCGAGUCCCGUACGGAACG

This series covers variants of B1. The series can be described thus: yeast fitness relative to wild type (ratio to wild type); higher = fitter; tRNA-Arg(CCU), competitive growth, 37 C, YPD. The procedure, abridged: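 The tRNA-Arg(CCU) gene variants were made by chemical synthesis with a 3% per-site mutation rate at 69 sites and inserted at the native genomic locus of Saccharomyces cerevisiae. After pooling, the strains were competed in YPD at 37°C for 24 hours in six parallel replicates. Gene amplicons from the start population and each end population were read by 100-nucleotide paired-end sequencing, and Darwinian fitness relative to wild type was taken from genotype frequency changes. Genotypes needed ≥ 100 starting reads, and estimates < 0.5 were set to 0.5.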
With C29G G44C C49G A57C C61U, the yeast fitness was not above 0.5.

For A43C A45U C49G C61U, the yeast fitness was not above 0.5.

In the case of C5U G10C A57U, the yeast fitness is not above 0.5.

Consider G38A C61A A65U, for which the yeast fitness is not above 0.5.

As for C4A U8A G12C U19C C30U, the yeast fitness was not above 0.5.

Consider G10A G17C C30G C33G U53C A57C, for which the yeast fitness is not above 0.5.

For U3C C29U G58C, the yeast fitness came out at 0.58.

With G25C C46U A57U G67C, the yeast fitness was not above 0.5.

Consider A14C G41A G56C C62G, for which the yeast fitness was not above 0.5.

Take U2A U54C C66G: the yeast fitness is not above 0.5.

Turning to C11U A20C G25C C27A A37U C61U, the yeast fitness was not above 0.5.

Consider C11G C29A, for which the yeast fitness came out at 0.518.

Consider U2C U28A G67A, for which the yeast fitness was not above 0.5.

A14U A36C A37G: the yeast fitness was not above 0.5.

Take A20U G25C G39A G48C A70U: the yeast fitness was not above 0.5.

In the case of C5U U53A U54A C60A A69U, the yeast fitness was not above 0.5.

U8A G23A C30G A65U A70U: the yeast fitness was not above 0.5.

In the case of A21C C24G C62G, the yeast fitness is not above 0.5.

With G9C C27U A36G A42U G63C, the yeast fitness is not above 0.5.

Take C4G A21G G63C: the yeast fitness is not above 0.5.

For G9A G12A A36U G39A, the yeast fitness is not above 0.5.

On to G9A U16G A42C, for which the yeast fitness came out at 0.955.

With U3C U16G U19A A43C U47C U59G, the yeast fitness was not above 0.5.

As to A15G C24G U32A G41A A69U, the yeast fitness is not above 0.5.

In the case of C11U C29G C34G C62U A69C, the yeast fitness is not above 0.5.

With C33U C49A A65C, the yeast fitness is not above 0.5.

Take U16C U26C G58A: the yeast fitness was determined as 1.11.

Turning to C5G U54C C62U G68C, the yeast fitness was not above 0.5.

With G6C A45U C49A G52C G56A A69G, the yeast fitness is not above 0.5.

For the variant C11G A43G A45C G50C C61U, the yeast fitness is not above 0.5.

Turning to C24G G51C G68A, the yeast fitness was not above 0.5.

With A43U G51A G52C C60A, the yeast fitness is not above 0.5.

As for G10A A20G A37C G39A A65U A70C, the yeast fitness was not above 0.5.

A14C U28C C61A: the yeast fitness was not above 0.5.

As to C4U G68A, the yeast fitness was determined as 0.856.

With C4G C5G C30U C31U A45U A57G A70U, the yeast fitness is not above 0.5.

Take G10A A37C C55G G63A: the yeast fitness is not above 0.5.

With G25A C27U A69C, the yeast fitness was 0.73.

Take A14U C24U A40C: the yeast fitness is not above 0.5.

With C11U C27A C29A A37U A45U U64C, the yeast fitness is not above 0.5.

For A42U A43U C60U A69U, the yeast fitness was not above 0.5.

For the variant A14U U16A C22U C24A G67A A69C, the yeast fitness amounted to 0.67.

With U3A G9A U19A G44C A65U, the yeast fitness is not above 0.5.

In the case of U3A A36G G68A A70C, the yeast fitness worked out at 0.566.

In the case of C5A A15C C27U C30U U32G U35A A37C A57U, the yeast fitness was not above 0.5.

As to U2G U16G C27A A36C, the yeast fitness is not above 0.5.

As to C11G C24U A57G G68C, the yeast fitness was not above 0.5.

As for G12C A20G C46G, the yeast fitness stood at 0.548.

As to C24U C34G A36U C61U, the yeast fitness was not above 0.5.

Take C5A U16G U54A: the yeast fitness is not above 0.5.

With G18A C29U U35A G63A, the yeast fitness is not above 0.5.

Regarding U19A C22U U35C A40U G51C C66U A70G, the yeast fitness was not above 0.5.

For the variant C24G U35G A40G, the yeast fitness was not above 0.5.

Regarding U2C C29A G56C, the yeast fitness was not above 0.5.

With C27A U35C, the yeast fitness was determined as 0.735.

G12A C46G: the yeast fitness was found to be 1.

Regarding U3C G25A A45G, the yeast fitness turned out to be 0.59.

For A20C A57C C60A, the yeast fitness is not above 0.5.

Take C34G G39C U53G G56A A65U: the yeast fitness was not above 0.5.

Take G17A A45C C55U G63C C66U: the yeast fitness is not above 0.5.

Take C27G U59G: the yeast fitness was 0.641.

Turning to U2G C49G G50C A70G, the yeast fitness was not above 0.5.

Regarding C5A G12A A57C C66U, the yeast fitness was not above 0.5.

On to U3C A14U A37U, for which the yeast fitness was not above 0.5.

With G17C G18A A57C A70U, the yeast fitness is not above 0.5.

Turning to C22A G41C C66U A70C, the yeast fitness is not above 0.5.

For the variant U3A G23A U32A C66U, the yeast fitness was not above 0.5.

Take G6C C11G C27U G58C U64G: the yeast fitness was not above 0.5.

As to C4G A21G C46A U54A A69U, the yeast fitness is not above 0.5.

On to G12C A42G A45G, for which the yeast fitness is 0.627.

On to C4A G50A G63C, for which the yeast fitness was not above 0.5.

As for A14U C22U C30U C46U G52C, the yeast fitness was not above 0.5.

In the case of C11U C24U C29G G38A A40C C61A A65G, the yeast fitness is not above 0.5.

On to C5U U7A G10A G48C, for which the yeast fitness was not above 0.5.

As for U2G C29U G44C, the yeast fitness is not above 0.5.

Turning to G6C A21C G56A, the yeast fitness is not above 0.5.

For the variant G9C A20G U26G, the yeast fitness is not above 0.5.

As to A20G C29A U47C G50C A57C, the yeast fitness is not above 0.5.

Regarding G12A C22G C29U C62A A69C, the yeast fitness was not above 0.5.

Regarding C24G G63C G67A, the yeast fitness is not above 0.5.

For C11A A20G C60A, the yeast fitness is not above 0.5.

Turning to C33U C34A G50A C62U, the yeast fitness was not above 0.5.

Turning to C5U C22G G38C C60U, the yeast fitness was not above 0.5.

On to C5A C24G U26A C29G U32A U54C, for which the yeast fitness is not above 0.5.

For the variant U35C A42U C62U A70C, the yeast fitness is not above 0.5.

As for G6A U8C C22G U47A A70C, the yeast fitness is not above 0.5.

As to C22G C30U C62G, the yeast fitness is not above 0.5.

Turning to A20U C34G A42C, the yeast fitness is not above 0.5.

As to U19C C22U G25C C27G A40C A65U, the yeast fitness was not above 0.5.

With G12A A15U C24U G44C G52C A69U, the yeast fitness is not above 0.5.

In the case of G12C U13G C34G, the yeast fitness is not above 0.5.

G9A A15U A20G G52A: the yeast fitness was not above 0.5.

Regarding A14C G25C G48A C49U, the yeast fitness is not above 0.5.

On to U2A C30U A42G, for which the yeast fitness is not above 0.5.

C5G C29U A43C: the yeast fitness was 0.537.

Turning to G56A G58C U64A A69C, the yeast fitness is not above 0.5.

Turning to A21U C27G C30G G68A, the yeast fitness is not above 0.5.

In the case of C4U U13C C29G C34A, the yeast fitness was not above 0.5.

Take U28G A36G A40C G41A A45U C62A: the yeast fitness was not above 0.5.

Take A14G A20C A40C A45G C46A: the yeast fitness is not above 0.5.

Consider G51A A57U G63A A65U A70U, for which the yeast fitness is not above 0.5.

Take G12C C22G C55U: the yeast fitness was 0.581.

As to C22G A45C U47G U59A, the yeast fitness is not above 0.5.

Regarding C4U G17A U19G A21G A43G, the yeast fitness turned out to be 0.554.

Turning to A20U A37G A45G G51C, the yeast fitness was not above 0.5.

Consider U8C C30U, for which the yeast fitness came to 0.935.

Turning to G25A C29U C66U, the yeast fitness turned out to be 0.747.

Take U19A U28A G50C G56A: the yeast fitness is not above 0.5.

Turning to A14G G18A U26A G50A, the yeast fitness is not above 0.5.

With A20C C46A C49G G63A, the yeast fitness was not above 0.5.

In the case of C11U C29U C49A, the yeast fitness was not above 0.5.

As for G9A C30U, the yeast fitness came to 0.888.

Consider C31A A45C U47C C62U G63A U64A, for which the yeast fitness was not above 0.5.

As for C24U U28C A36C U53C C60A, the yeast fitness was not above 0.5.

With U8C A15C A21U, the yeast fitness is not above 0.5.

Regarding U7G A65G, the yeast fitness stood at 1.03.

In the case of A14G G17C C34U, the yeast fitness was not above 0.5.

On to C11G U13C C29U C30U, for which the yeast fitness is not above 0.5.

U2C A40G: the yeast fitness was found to be 0.984.

Take U2C C27U C46U G48A: the yeast fitness came to 0.636.

Consider C31A A37G G38A A40G, for which the yeast fitness is not above 0.5.

As to U26A A36G C49A G67C, the yeast fitness was not above 0.5.

A21C G23C C62A: the yeast fitness is not above 0.5.

Take C24G A37C C46U A65C: the yeast fitness was not above 0.5.

For the variant G18C G25C, the yeast fitness was determined as 0.677.

For U2C C11A A36G A43C, the yeast fitness is not above 0.5.

For the variant C5G G41A U64G A69C, the yeast fitness was not above 0.5.

Take A37G A40G G63C: the yeast fitness was not above 0.5.

As for G6A A20G C24U A40G A43G A70G, the yeast fitness is not above 0.5.

C33G A42C A65C: the yeast fitness is not above 0.5.

As for A14C C27U C55G A70U, the yeast fitness was found to be 0.613.

Consider G10A A21C A37G G52A C62A, for which the yeast fitness was not above 0.5.

As for C11G A21U C49G, the yeast fitness is not above 0.5.

As for G6A G41A C49A C66A, the yeast fitness was not above 0.5.

Regarding C29U G38C A45G G51C, the yeast fitness was not above 0.5.

With G38C G44C C46A, the yeast fitness was 0.814.

As to C11U U53A C62A, the yeast fitness was not above 0.5.

Take C24A A42U U59A: the yeast fitness is not above 0.5.

In the case of U13A G23A A37U G48C, the yeast fitness was not above 0.5.

With U16A C22U C66U, the yeast fitness is not above 0.5.

Regarding C31U G52A G68C, the yeast fitness was not above 0.5.

On to C27G C31G A65C, for which the yeast fitness was not above 0.5.

U2A C31U A45U: the yeast fitness is not above 0.5.

In the case of A15C C29A C33G A45C, the yeast fitness was not above 0.5.

C4A U16G G39C C66G G68C: the yeast fitness is not above 0.5.

A37G U47A G56A U59C C61G: the yeast fitness was not above 0.5.

With C11A A21C C55U C61A C62U G67C, the yeast fitness is not above 0.5.

For the variant G17A A36U C62G, the yeast fitness was not above 0.5.

On to A36C C61U, for which the yeast fitness was found to be 0.581.

Regarding C11G C24U U54C, the yeast fitness is not above 0.5.

Regarding C4A C34G C46G G56A, the yeast fitness is not above 0.5.

On to A21U G67C, for which the yeast fitness was found to be 0.645.

As for C4G G38C G44A, the yeast fitness is not above 0.5.

With A15C A21U A43G, the yeast fitness is not above 0.5.

G18A G58A A70U: the yeast fitness was not above 0.5.

Regarding G9C G25C C31U, the yeast fitness is not above 0.5.

As for U3A A20U C31G, the yeast fitness turned out to be 0.535.

Take A20C C34G A43C A45U: the yeast fitness was not above 0.5.

Consider C29G G38C C49U G63A A65U, for which the yeast fitness was not above 0.5.

On to U16C C34U A36U C66U A69U, for which the yeast fitness is not above 0.5.

Consider C5U G58A C61U A70G, for which the yeast fitness amounted to 0.797.

On to A14U G23U, for which the yeast fitness came out at 0.59.

On to G25A A40U G58C, for which the yeast fitness came to 0.973.

Turning to C4A G12C G41C A57C G68A, the yeast fitness is not above 0.5.

For the variant U19A A20C A21G C30G C55G, the yeast fitness came to 0.573.

As for U16C A21U C30U C34G A36C A57C, the yeast fitness was not above 0.5.

C22A A70U: the yeast fitness worked out at 1.01.
